Source: PubChem BioAssay AID540303 (National Center for Advancing Translational Sciences (NCATS), 2011)
In all, about 330,000 compounds went through this assay and about 1,000 (0.3%) were called active. The shares of active, inactive and inconclusive entries below differ from those in the screen. Calls follow the shape of the dose curve; as a rule, active = well fitted inhibition curve with a large enough effect; inconclusive = small, poorly fitted or top-dose-only effect; inactive = no such curve, though single readings can be large or run the other way; tested in mouse RAW 264.7 cells. Where the call is inconclusive, the potency comes from a doubtful curve fit.

experiment: qHTS for Inhibitors of Cell Surface uPA Generation; conditions: cell surface uPA generation assay; series mostly up to 38.3 µM; also: nearly all actives have a fitted effect of over 55% in size
Summary of the method: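 RAW 264.7, 4000 cells/well, o/n 37 C; cpd 1:5 dilution, up to 38.3 uM final; 24 h 37 C/5% CO2 with reagent; ATP-Lite lum. High ATP = LF entry blocked.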
Potency is read from the fitted curve at half-maximal effect.

SMILES | Potency
OC(CNCCc1ccc(C(F)(F)F)cc1)COC(c1ccccc1)c1ccccc1 (centres undefined) | inconclusive: 10 µM [inhibitor, single point]
N#Cc1c(N2C(=O)Nc3ccccc3N2O)sc2c1CCCCCC2 | inactive
Cc1c(N=C/C=C2/N(C)c3ccccc3C2(C)C)c(=O)n(-c2ccccc2)n1C | inactive
Cc1ccc(-c2nc(CSCC(=O)N3CCCC3)c(C)o2)cc1 | inactive
CCOC(=O)/C=C1\CC(C(=O)OCC)Oc2c(OC)cccc21 (centres undefined) | inactive
N#CCC(=O)Nc1ccc(C(=O)OCC(=O)NC(=O)Nc2ccc3c(c2)OCCO3)cc1 | inconclusive: 2.82 µM [inhibitor, full curve, poor fit]
Cc1nnc(N/N=C/c2cccc(OCc3ccc(Cl)c(Cl)c3)c2)n1N | inconclusive: 10 µM [inhibitor, partial curve, poor fit]
CCn1c2ccccc2c2cc(C3C(C#N)=C(N)Oc4n[nH]c(COC)c43)ccc21 (centres undefined) | inconclusive: 10 µM [inhibitor, single point]
CC(=O)CSc1cc(C)nc2c(-c3ccccc3)c(C)nn12 | inactive
CN(c1cccc(NC(=O)CN(c2ccc(C34CC5CC(CC(C5)C3)C4)cc2)S(C)(=O)=O)c1)S(C)(=O)=O | inconclusive: 8.91 µM [inhibitor, single point]
CC(=NCCN1CCN(C(=S)Nc2ccccc2)CC1)C1=C(O)CC(C)(C)CC1=O | inactive
CCOC(=O)c1c(NC(=O)CSc2nnc(-c3ccccc3)o2)sc(C(C)=O)c1C | inactive
Cc1ccc2cc(CN(CC3CCCO3)C(=S)NCc3ccco3)c(=O)[nH]c2c1C (centres undefined) | inactive
COc1ccc(C2/C=C\CN(C(=O)OCc3ccccc3)CC(=O)N2Cc2ccc(F)cc2)cc1 (centres undefined) | inconclusive: 20 µM [inhibitor, single point]
Cc1ccc(S(=O)(=O)Nc2c(C)n(C)n(-c3ccccc3)c2=O)cc1C(=O)OC(C)C(=O)c1ccccc1 (centres undefined) | active: 5.01 µM
CC(NC(=O)COc1ccccc1)C(=O)N1CCN(c2ccccc2)CC1 (centres undefined) | inconclusive: 0.0158 µM [inhibitor, full curve, poor fit]
O=C(CCl)N1CCN(S(=O)(=O)c2ccc3ccccc3c2)CC1 | inactive
Cc1ccc(C(=O)Nc2ccc3c(c2)OCCO3)c(Cl)c1 | inconclusive: 1 µM [inhibitor, full curve, poor fit]
COC(=O)/C=C/C(=O)N1CCN(c2ccccc2C)CC1 | active: 11.2 µM
Nn1cnc2scc(-c3ccc(Cl)cc3)c2c1=O | inconclusive: 10 µM [inhibitor, partial curve, poor fit]
O=C(CN1CCN(S(=O)(=O)c2ccc(Cl)cc2)CC1)c1ccc(O)c(O)c1 | inconclusive: 1 µM [inhibitor, full curve]
Cc1ccc(NC(=O)c2ccc(N3CCCC3=O)cc2)cc1S(=O)(=O)N1CCCCC1 | inactive

2 entries picked at random from those above, as already listed:
SMILES | Potency
Cc1nnc(N/N=C/c2cccc(OCc3ccc(Cl)c(Cl)c3)c2)n1N | inconclusive: 10 µM [inhibitor, partial curve, poor fit]
Cc1ccc(C(=O)Nc2ccc3c(c2)OCCO3)c(Cl)c1 | inconclusive: 1 µM [inhibitor, full curve, poor fit]

Following part.

SMILES | Potency
Cc1cc(C)c(S(=O)(=O)NNC(=O)C2CCN(Cc3ccccc3)CC2)c(C)c1 | inactive
COCC(=O)N/N=C\c1ccccc1OC/C=C/c1ccccc1 | inconclusive: 12.6 µM [inhibitor, single point]
CN1/C(=C\C=C2/C(=O)Oc3ccccc3C2=O)C(C)(C)c2ccccc21 | inactive
Cc1ccccc1C(=O)OCC(=O)Nc1cccc(S(=O)(=O)NC2=NCCC2)c1 | inconclusive: 1.12 µM [inhibitor, partial curve, poor fit]
CCOc1ccc2[nH]cc(C(=O)NCc3ccc(F)cc3)c(=O)c2c1 | inconclusive: 11.2 µM [inhibitor, single point]
CCN(C(=O)Cc1c(C(=O)O)[nH]c2ccccc12)c1ccc(OC)cc1 | inactive
Oc1ccc(/C=N/Nc2ccc(Cl)nn2)c(O)c1O | inconclusive: 1 µM [inhibitor, partial curve, poor fit]
Cc1ccc(Oc2cc(NC(=O)CCCn3nc([N+](=O)[O-])cc3C)cc([N+](=O)[O-])c2)cc1 | inactive
CCN(c1ccccc1)S(=O)(=O)c1ccc(NN)nc1 | inconclusive: 11.2 µM [inhibitor, single point]
CNC(=S)N(CCc1c(C)[nH]c2ccc(F)cc12)Cc1cccnc1 | inactive
Cc1cc(=O)n2c3ccccc3n(CC(O)CN3CCCCC3)c2c1C#N (centres undefined) | inconclusive: 12.6 µM [inhibitor, single point]
COc1cc(OC)c2c(-c3ccccc3)cc(=O)oc2c1C(CCN1CCCC(C)C1)c1ccc(N(C)C)cc1 (centres undefined) | inconclusive: 12.6 µM [inhibitor, single point]
Nc1nc(N)c2c(ccc3nccc32)[nH]1 | inconclusive: 1.12 µM [inhibitor, full curve, poor fit]
CCCc1nnc(NC(=O)c2nc(S(=O)(=O)Cc3ccc(C)cc3)ncc2Cl)s1 | inconclusive: 10 µM [inhibitor, single point]
COc1ccc(NC(=O)c2cc(SC)ccc2Cl)cc1 | inconclusive: 28.2 µM [inhibitor, single point]
CCCc1nc2oc3ccccc3c(=O)c2c(=O)n1-c1ccc(C)cc1 | inconclusive: 11.2 µM [inhibitor, partial curve]
Cc1cc(N2CCCC2)nc2ccccc12 | inconclusive: 20 µM [inhibitor, single point]
COc1ccc([C@]2(C(C)C)ON(c3ccccc3C(F)(F)F)C2=O)cc1 | inconclusive: 10 µM [inhibitor, partial curve]
CC(C)C[C@H](NC(=O)c1[nH]cnc1C(=O)N[C@@H](C)c1ccccc1)C(=O)OC(C)(C)C | inconclusive: 8.91 µM [inhibitor, partial curve, poor fit]
CC(C)(C)C1CCC(CN2C(Nc3ccccc3)=NC[C@@H]2Cc2ccccc2)CC1 (some centres undefined) | inconclusive: 12.6 µM [inhibitor, single point]
COCCN(Cc1cc2cc3c(cc2nc1Cl)OCO3)C(=O)c1ccc(C)cc1 | inconclusive: 12.6 µM [inhibitor, single point]
COc1ccc(/C=N/NC(=O)c2nn(C)cc2Br)cc1CSCc1ccco1 | inconclusive: 7.94 µM [inhibitor, single point]
